According to patent publication US6448052B2, “Carbonyl reductase enzyme and methods for its use” (Kaneka Corporation, priority 1997, dated 2002):
At least one compound was matched to its structure with a doubt left.

Tested on: CRD enzyme
Assay: Effect of metal ions and inhibitors on CRD enzyme activity, ethyl 4-chloroacetoacetate as substrate
Assay type: biochemical, Candida magnoliae IFO 0705
Details: Concentration of addition 1 mM; non-added = 100

`O=C1NC(=O)C(c2ccccc2)(c2ccccc2)N1` [Diphenyl hydantoin] was tested, and the “Relative activity (%)” value was 84%.
